No constants are given. Whether binding was seen depends on the method and setting. Binding seen in cells or lysates may run through a third protein. A yes stands for co-enrichment or nearness to the bait. Other partners may have been found. Tags and fused reporters may be left off the sequences shown.

This test concerns the target T1, FLAG-HA-Rbm10 (S. pombe) (UniProt P87143).
T1 sequence: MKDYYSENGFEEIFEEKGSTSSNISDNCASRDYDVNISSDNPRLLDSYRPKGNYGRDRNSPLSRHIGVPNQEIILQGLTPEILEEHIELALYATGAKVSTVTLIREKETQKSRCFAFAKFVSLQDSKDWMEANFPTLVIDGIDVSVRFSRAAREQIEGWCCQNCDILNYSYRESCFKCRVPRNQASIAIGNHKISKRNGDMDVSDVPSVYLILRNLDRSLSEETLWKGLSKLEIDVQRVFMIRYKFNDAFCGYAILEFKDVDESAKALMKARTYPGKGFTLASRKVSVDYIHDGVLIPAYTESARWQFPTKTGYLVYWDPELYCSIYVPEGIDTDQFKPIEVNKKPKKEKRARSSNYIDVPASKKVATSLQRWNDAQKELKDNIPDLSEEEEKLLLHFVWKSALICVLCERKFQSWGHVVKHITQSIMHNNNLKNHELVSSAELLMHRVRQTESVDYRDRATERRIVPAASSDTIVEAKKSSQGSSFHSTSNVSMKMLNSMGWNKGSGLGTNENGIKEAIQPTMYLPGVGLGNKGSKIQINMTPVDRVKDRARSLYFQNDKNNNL
The test is described as follows: affinity purification with mass spectrometry; two-step purification (anti-FLAG beads, 3xFLAG peptide elution, then uMACS HA magnetic beads) of overexpressed FLAG-HA-Rbm10 from S. pombe lysate with Benzonase; three independent purifications; control purification from an untagged strain.

B1: Ini1 (protein, UniProt Q9UTB8 1-117)
chain: MSKHHPDLVLCRRQPGITVGKLCERCDEKCPICDSHVRPTTLVRICDECAFGSSQDRCIICGAPGVSDCYYCSECTRMEYDRDGCPRVINLGSSRTDWFYERKKFKNAGKEMPGATY
As for B1, the binding result is “binds”.

B2: Prp1 (protein, UniProt Q12381 1-906)
chain: MANFYPDFLNMQPPPNYVAGLGRGATGFTTRSDLGPAQELPSQESIKAAIEQRKSEIEEEEDIDPRYQDPDNEVALFATAPYDHEDEEADKIYQSVEEHLSKRRKSQREKQEQLQKEKYEKENPKVSSQFADLKRGLSTLTDEDWNNIPEPGDLTRKKRTKQPRRERFYATSDFVLASARNENQAISNFAVDTQAGTETPDMNGTKTNFVEIGAARDKVLGIKLAQASSNLTSPSTIDPKGYLTSLNSMVPKNANDLGDIRKARKLLQSVIETNPKHASGWVAAARLEEVANKLSQAQSLILKGCENCSRSEDVWLEAIRLHPAAEAKVIIANAVKKLPKSVTLWLEAEKLENQAQHKKRIIKKALEFNPTSVSLWKEAVNLEEEVDNARILLARAVELIPMSIDLWLALARLETYENAKKVLNKARQTIRTSHEVWIAAARLEEQQGNVSRVEKIMARGVSELQATGGMLQRDQWLSEAEKCETEGAVITAQAIINTCLGVGLDEEDQFDTWLDDAQSFIARKCIDCARAVFAFSLRVYPKSEKLWLRAVELEKLYGTTESVCSILEKAVESCPKAEILWLLYAKERKNVNDIAGARNILGRAFEYNSNSEEIWLAAVRIEFVNNENERARKLLARARIESGTERIWTKSISLERILDEKDRALQLLENALKIYPHYDKLYMMKGQIFEDKEQIELARDAYLAGTKVCPYSIPLWLLLAKLEEKQSVIRARVVFDRAKVKNPKNEFLWLELIKMELRAGNISQVRAALAKALQECPSSGLLWTEAIWLEPRAQRKTRATDALRKCEGNAHLLCTIARMLWLEKKADKARSWFLKAVKADQDNGDVWCWFYKYSLEAGNEDQQKEVLTSFETADPHHGYFWPSITKDIKNSRKTPQELLHLAINVL
Take B2: the binding entry is “binds”.

B3: Prp11 (protein, UniProt Q9P7C7 1-1014)
chain: MSRRTRSRSPPRRSYNRERRDYRKYDDSEDQKGARYNRYVDDVSSRRDRHDSFRSHESNKIRRDNSWKHDKYSYEKRYQERDREYARSKNIPDQYIGRSPRPTSHRHAEEKEVDNKTKSDETNPVLQGSATEIKPQPRRSRFDRTERVGASLSVSEIQSENPRVDVIPKDKAVENNHQRNAEKPVASDKITDAKLLARLERVRAWKESKAKQEASKKEEHKLNTKPQVTAKDQNAMPSTGISGFEINRQKDTSDMKRNNRVHMDDEDGPRRMNLEDYQELWDQEDRGMLGNEQAASMEEDEVDPLDAYMASLVGTTDTIRPGLLNTEVIDPNANDDERMVISETLEEEENLLALAAKRSKKKDVITVDHSKINYEDFKKDFYVEPEELKNLSPAEVDELRASLDGIKIRGIDCPKPVTSWSQCGLSAQTISVINSLGYEKPTSIQAQAIPAITSGRDVIGVAKTGSGKTIAFLLPMFRHIKDQRPLKTGEGPIAIIMTPTRELAVQIFRECKPFLKLLNIRACCAYGGAPIKDQIADLKRGAEIVVCTPGRMIDVLSANAGRVTNLHRCTYLVLDEADRMFDLGFEPQVMRIINNIRPDRQTVLFSATFPRAMEALARKVLKKPVEITVGGRSVVASEVEQIVEVRPEESKFSRLLELLGELYNNQLDVRTLVFVDRQESADALLSDLMKRGYTSNSIHGGKDQHDRDSTISDYKAGVFDVLIATSVVARGLDVKSLQLVVNYDCPNHMEDYVHRVGRTGRAGHTGVAVTFITPEQEKYAVDIAKALKMSKQPVPKELQTLASQFLEKVKAGKEKAAGGGFGGKGLSRLDETRNAERKMQRKAYGEDEEDVETEAEAKSPLEKITPEKSTGDPTLDRVRAAVGGIAARAFANQTAQSNKLTQPISIIKTDGDEYKAKMEINDYPQQARWAVTNNTNIVHVTELTGTSITTKGNFYLPGKNPEPGEEKLYLWIEGPSELVVNRAITELRRLLLEGINHSLEGGNKPSASGRYTVV
As for B3, the binding result is recorded as “binds”.

B4: Gpd3 (protein, UniProt O43026 1-335)
chain: MAIPKVGINGFGRIGRIVLRNAILTGKIQVVAVNDPFIDLDYMAYMFKYDSTHGRFEGSVETKGGKLVIDGHSIDVHNERDPANIKWSASGAEYVIESTGVFTTKETASAHLKGGAKRVIISAPSKDAPMFVVGVNLEKFNPSEKVISNASCTTNCLAPLAKVINDTFGIEEGLMTTVHATTATQKTVDGPSKKDWRGGRGASANIIPSSTGAAKAVGKVIPALNGKLTGMAFRVPTPDVSVVDLTVKLAKPTNYEDIKAAIKAASEGPMKGVLGYTEDSVVSTDFCGDNHSSIFDASAGIQLSPQFVKLVSWYDNEWGYSHRVVDLVAYTASKD
As for B4, the binding result is “binds”.

B5: Prp10 (protein, UniProt Q10178 1-1205)
chain: MSTGTYPYKMFKMDVTNLNKVEDVEIERLRAERELLRRQKEAAKNSSTNGSVNIEGTQDSNDLQYNAHLFKSSNPKEEYDSAIDVRNDISQDEDDYKRTNDVNDSYRLVRQYEAPKELLNEYADESYDPMQERQSKKQIQDRESDYQKQRYDRQLTPTRVDAFQPDGTQSNGRSYAEVMRQVELEKEERRVHMELNQRRREGTLKEVEEEESISDKKRELELNNTEISQKPKRSRWDQAPPSVTQVSTTKRRSRWDKAPENFTISEHVIENGISEDLINKEVNVVEEKLRPPVRLLTEEELNELLPSEGYAILEPPPGYLESIHPELLQKGTTLDTYHVPQEQELPLEKELPAALPTEIPGVGDLAFFKQEDVKYFGKLLKVEDEAKLTIAELRERKILRLLLKVKNGTPPMRKSALRQLTDQARDFGAAALFNQILPLLMERTLEDQERHLLVKVIDRILYKLDDLVRPFTHKILVVIEPLLIDEDYYARAEGREIISNLAKASGLAHMIATMRPDIDHVDEYVRNTTARAFSVVASALGVPALLPFLKAVCRSKKSWQARHTGVRIIQQIALLLGCSILPHLKNLVDCIGHGLEDEQQKVRIMTALSLSALAEAATPYGIEAFDSVLKPLWSGVQRHRGKSLAAFLKATGFIIPLMEPEYASHFTRRIMKILLREFNSPDEEMKKIVLKVVSQCASTDGVTPEYLRTDVLPEFFHCFWSRRMASDRRSYKQVVETTVVLAQQVGSRQIVERVVNNFKDESEPYRKMTAETVDKVIGSLGVSEIDERLEELLLDGVLFAFQEQSVEEKVILTCFSTVVNALGTRCKPYLPQIVSTILYRLNNKSANVREQAADLVSSITIVLKACGEEALMRKLGVVLYEYLGEEYPEVLGSILGAIKAIVSVVGMSSMQPPIRDLLPRLTPILRNRHEKVQENTIDLVGKIADRGSEYVSAREWMRICFELIDMLKAHKKSIRRAAVNTFGYISKAIGPQDVLATLLNNLKVQERQNRVCTTVAIAIVAETCMPFTVVPALMADYRTPEMNVQNGVLKSLAFMFEYIGEQARDYVYAITPLLADALMDRDAVHRQTAASVIKHLSLGCVGLGVEDAMIHLLNILWPNILEESPHVINAVREGIDGIRNCIGVGPIMAYLVQGLFHPSRKVRNTYWTSYNSAYVQSADAMVPYYPHVDDDQFNNYDMKTLHICI
Take B5: the binding result is reported as “binds”.

For the origin of these results see article PMC7816512.
